# Source: PubChem BioAssay AID1224830 (NIAID, 2016)
# Purpose: 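Host factors that control LPS-induced TNF expression in human macrophages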 (primary screen)
# Cell system: human THP-1 monocytic leukaemia cells, TNF dual-luciferase reporter clone, PMA-differentiated to macrophage-like cells
# Knock-down reagent: siRNA pool against human genes, 50 nM
# Time to read-out: LPS for 4 h, given about 3 days after siRNA transfection
# Treatment: bacterial LPS (TLR4 ligand), 10 ng/ml
# Measured: 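TNF firefly reporter luminescence divided by renilla, normalised to the plate median, then turned into a robust z-score for each replicate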
# Reading the numbers: TNF reporter robust z-score: higher = stronger TNF reporter response to LPS
# Active means: 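a well is active when its z-score exceeds 2.8 or falls below -1.5; control wells carry no call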
# Shown is a random part of about 18,000 deposited reagents. About 2,900 of all reagents (16%) were called active. 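Calls are made per well; low scores hint the gene aids the LPS response, high scores that it dampens it.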 Unmarked entries are inactive. Repeated entries: four replicate wells of each siRNA pool.
The opening 2 records, ahead of the listing:
gene knocked down,TNF reporter robust z-score
LYZ,2.71
LYZ,1.41

Results, from the first entry:
gene knocked down,TNF reporter robust z-score
LYZ,2.71
LYZ,1.41
LYZ,0.48
LYZ,5.32 (active)
RUFY4,-1.12
RUFY4,-0.94
RUFY4,-0.56
MLLT1,-0.74
MLLT1,-0.29
MLLT1,-1.41
MLLT1,-0.49
SMC5,0.73
SMC5,1.35
SMC5,1.74
SMC5,1.12
OIP5,-0.66
OIP5,-0.44
OIP5,-0.63
OIP5,-0.49
CARD11,-1.45
CARD11,-1.15
CARD11,-1.28
CARD11,-0.56
TMEM8B,0.36
TMEM8B,-1.13
TMEM8B,-0.38
TMEM8B,-0.22
ZKSCAN7,2.12
ZKSCAN7,-0.17
ZKSCAN7,0.45
ZKSCAN7,1.45
MT1B,-0.31
MT1B,-0.75
MT1B,-0.92
MT1B,0.38
DRD1,-0.88
DRD1,-0.41
DRD1,-0.24
DRD1,-0.35
